Laboratory results as given in PMC12746154.
The exact form of at least one protein or probe is not confirmed. Where cells or extracts were used, other partners may take part.

Sequences of proteins named here, by UniProt entry; tags and fusion partners are left off. Residues count along the entry.
UniProt Q13308, 31-1070: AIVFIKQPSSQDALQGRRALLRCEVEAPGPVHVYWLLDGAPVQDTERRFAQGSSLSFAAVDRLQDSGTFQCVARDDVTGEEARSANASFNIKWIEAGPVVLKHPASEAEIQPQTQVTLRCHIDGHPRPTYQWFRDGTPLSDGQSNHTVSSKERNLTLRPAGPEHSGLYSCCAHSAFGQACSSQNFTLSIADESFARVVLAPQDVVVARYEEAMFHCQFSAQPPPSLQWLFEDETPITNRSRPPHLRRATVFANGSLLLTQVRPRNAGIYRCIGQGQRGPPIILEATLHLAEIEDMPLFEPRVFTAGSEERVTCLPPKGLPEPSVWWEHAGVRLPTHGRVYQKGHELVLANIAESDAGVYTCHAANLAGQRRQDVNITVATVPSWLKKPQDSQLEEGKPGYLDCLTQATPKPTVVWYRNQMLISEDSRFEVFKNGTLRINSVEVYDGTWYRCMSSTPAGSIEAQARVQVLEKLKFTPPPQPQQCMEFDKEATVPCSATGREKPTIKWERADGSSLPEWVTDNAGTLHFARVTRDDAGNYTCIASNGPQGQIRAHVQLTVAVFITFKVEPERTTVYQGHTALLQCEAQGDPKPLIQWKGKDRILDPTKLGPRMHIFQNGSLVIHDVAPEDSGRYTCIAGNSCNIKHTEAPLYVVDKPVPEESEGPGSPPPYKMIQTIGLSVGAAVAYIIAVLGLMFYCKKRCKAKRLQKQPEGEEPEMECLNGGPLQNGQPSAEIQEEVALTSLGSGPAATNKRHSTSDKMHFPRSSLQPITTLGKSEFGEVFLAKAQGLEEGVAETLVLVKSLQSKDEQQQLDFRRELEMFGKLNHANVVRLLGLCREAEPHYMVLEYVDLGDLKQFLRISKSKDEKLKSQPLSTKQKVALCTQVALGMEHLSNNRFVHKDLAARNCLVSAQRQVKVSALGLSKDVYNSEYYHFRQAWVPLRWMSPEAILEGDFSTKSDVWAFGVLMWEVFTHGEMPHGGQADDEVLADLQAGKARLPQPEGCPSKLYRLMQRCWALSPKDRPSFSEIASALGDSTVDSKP
UniProt Q9NZQ7, 19-290: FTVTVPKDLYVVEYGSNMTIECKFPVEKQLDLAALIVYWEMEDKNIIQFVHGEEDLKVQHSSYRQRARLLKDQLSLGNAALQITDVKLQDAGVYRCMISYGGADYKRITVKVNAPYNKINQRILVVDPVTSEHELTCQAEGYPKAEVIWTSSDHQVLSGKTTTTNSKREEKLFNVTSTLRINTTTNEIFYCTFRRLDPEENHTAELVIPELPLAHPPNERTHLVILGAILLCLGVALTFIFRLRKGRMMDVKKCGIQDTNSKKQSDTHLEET

Legend:
[1] = biological target: PTK7 on HCT116 cells (UniProt Q13308); assay: flow cytometry; conditions: HCT116 cells, 4 °C, value only in figure, Flow cytometry on live cells, HCT116 (Sgc8) at 4 °C, protein on the cell surface, label: FAM, folded or branched DNA
[2] = biological target: PD-L1 on H460 cells (UniProt Q9NZQ7); assay: flow cytometry; conditions: H460 cells, value only in figure, Flow cytometry on live cells, HCT116 (Sgc8) at 4 °C, protein on the cell surface, label: Cy5, folded or branched DNA

ATCTAACTGCTGCGCCGCCGGGAAAATACTGTACGGTAGA [Sgc8-DBCO]
binding result ([1]; apparent Kd, 5'-DBCO): binds

ATCTAACTGCTGCGCCGCCGGGAAAATACTGTACGGTAGA [Sgc8-MOR]
binding result ([1]; Kd comparable to Sgc8-DBCO, 5'-DBCO clicked to azide-MOR (morpholine)): binds

TACAGGTTCTGGGGGGTGGGTGGGGAACCTGTT [Mj5c-DBCO]
binding result ([2]; apparent Kd, 5'-DBCO): binds

TACAGGTTCTGGGGGGTGGGTGGGGAACCTGTT [Mj5c-DEA]
binding result ([2]; Kd comparable to Mj5c-DBCO, 5'-DBCO clicked to azide-DEA (dimethylethanamine)): binds

TACAGGTTCTGGGGGGTGGGTGGGGAACCTGTT [Mj5c-IMZ]
binding result ([2]; Kd comparable to Mj5c-DBCO, 5'-DBCO clicked to azide-IMZ): binds

TACAGGTTCTGGGGGGTGGGTGGGGAACCTGTT [Mj5c-MOR]
binding result ([2]; Kd comparable to Mj5c-DBCO, 5'-DBCO clicked to azide-MOR (morpholine)): binds

TACAGGTTCTGGGGGGTGGGTGGGGAACCTGTT [Mj5c-PEG3]
binding result ([2]; Kd comparable to Mj5c-DBCO, 5'-DBCO clicked to azide-mPEG3): binds

TACAGGTTCTGGGGGGTGGGTGGGGAACCTGTT [Mj5c-PEG4]
binding result ([2]; Kd comparable to Mj5c-DBCO, 5'-DBCO clicked to azide-mPEG4): binds

TACAGGTTCTGGGGGGTGGGTGGGGAACCTGTT [Mj5c-PEG14]
binding result ([2]; Kd comparable to Mj5c-DBCO, 5'-DBCO clicked to azide-mPEG14): binds

TACAGGTTCTGGGGGGTGGGTGGGGAACCTGTT [Mj5c-PEG24]
binding result ([2]; Kd comparable to Mj5c-DBCO, 5'-DBCO clicked to azide-mPEG24): binds

TACAGGTTCTGGGGGGTGGGTGGGGAACCTGTT [Mj5c-PID]
binding result ([2]; Kd comparable to Mj5c-DBCO, 5'-DBCO clicked to azide-PID): binds

TACAGGTTCTGGGGGGTGGGTGGGGAACCTGTT [Mj5c-PYD]
binding result ([2]; Kd comparable to Mj5c-DBCO, 5'-DBCO clicked to azide-PYD): binds
